PubChem BioAssay AID1508587, Peter MacCallum Cancer Centre, 2020
Test: 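Retest of knockdowns boosting BRAF inhibitor action on lactate release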 (follow-up of hits). System: human WM266.4 melanoma cells with a BRAF V600 mutation. Knock-down reagent: single siRNA against human genes, 25 nM. Time to read-out: 96 h. Challenge: vemurafenib 300 nM (about IC25), given 48 h after transfection for 48 h. Read-out: 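Per-cell lactate from absorbance divided by DAPI nucleus counts, compared with and without vemurafenib, relative to non-targeting siRNA, mean of 2 replicates; nuclear counts also give cell number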. Reading the numbers: lactate per cell, drug vs no drug: higher = less drug-induced drop in lactate per cell; lactate per cell with vemurafenib: higher = more lactate per cell under drug. Rule for the call: 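a duplex is active when its lactate-per-cell ratio with versus without drug falls under 0.55, i.e. 2 SD below non-targeting; a gene is confirmed if 2 or more of 4 duplexes pass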.
This is an unselected part of about 1,600 deposited reagents. 623 of them (39%) were called active. 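Calls are for each duplex; lactate ratios contain extreme outliers.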 A number with no mark means an inactive call. The numbers tell different reagents against one gene apart. Further read-outs or replicates are left out here.

target	reagent no.	lactate per cell, drug vs no drug	lactate per cell with vemurafenib
RMDN1 (regulator of microtubule dynamics 1)	1	1.16	3.05
RMDN1 (regulator of microtubule dynamics 1)	2	0.74	1.17
RMDN1 (regulator of microtubule dynamics 1)	3	0.44 (active)	0.42
RMDN1 (regulator of microtubule dynamics 1)	4	0.62	0.96
BCAR3 (BCAR3 adaptor protein, NSP family member)	1	0.61	9.66
BCAR3 (BCAR3 adaptor protein, NSP family member)	2	0.31 (active)	0.79
BCAR3 (BCAR3 adaptor protein, NSP family member)	3	0.39 (active)	1.4
BCAR3 (BCAR3 adaptor protein, NSP family member)	4	0.55	0.89
LCE4A (late cornified envelope 4A)	1	0.58	0.92
LCE4A (late cornified envelope 4A)	2	0.64	1.17
LCE4A (late cornified envelope 4A)	3	0.72	0.9
LCE4A (late cornified envelope 4A)	4	0.52 (active)	2.9
BTBD1 (BTB domain containing 1)	1	0.55	0.84
BTBD1 (BTB domain containing 1)	2	0.5 (active)	1.9
BTBD1 (BTB domain containing 1)	3	0.64	1.11
BTBD1 (BTB domain containing 1)	4	0.66	1.04
TIMP4 (TIMP metallopeptidase inhibitor 4)	1	0.43 (active)	0.61
TIMP4 (TIMP metallopeptidase inhibitor 4)	2	0.62	1.27
TIMP4 (TIMP metallopeptidase inhibitor 4)	3	0.6	0.76
TIMP4 (TIMP metallopeptidase inhibitor 4)	4	0.7	0.82

Called active, among the entries above:
target	reagent no.	lactate per cell, drug vs no drug	lactate per cell with vemurafenib
RMDN1 (regulator of microtubule dynamics 1)	3	0.44 (active)	0.42
BCAR3 (BCAR3 adaptor protein, NSP family member)	2	0.31 (active)	0.79
BCAR3 (BCAR3 adaptor protein, NSP family member)	3	0.39 (active)	1.4
LCE4A (late cornified envelope 4A)	4	0.52 (active)	2.9
BTBD1 (BTB domain containing 1)	2	0.5 (active)	1.9
TIMP4 (TIMP metallopeptidase inhibitor 4)	1	0.43 (active)	0.61

Additional reagents follow.
target	reagent no.	lactate per cell, drug vs no drug	lactate per cell with vemurafenib
SNAPIN (SNAP associated protein)	1	0.7	1.81
SNAPIN (SNAP associated protein)	2	0.82	1.25
SNAPIN (SNAP associated protein)	3	0.71	2.1
SNAPIN (SNAP associated protein)	4	0.48 (active)	0.75
IL17RD (interleukin 17 receptor D)	1	0.67	2.46
IL17RD (interleukin 17 receptor D)	2	0.84	2.1
IL17RD (interleukin 17 receptor D)	3	0.58	1.27
IL17RD (interleukin 17 receptor D)	4	0.74	1.43
ANKRD13B (ankyrin repeat domain 13B)	1	0.55	1.06
ANKRD13B (ankyrin repeat domain 13B)	2	0.68	2.34
ANKRD13B (ankyrin repeat domain 13B)	3	0.84	1.78
ANKRD13B (ankyrin repeat domain 13B)	4	0.65	0.98
BLK (BLK proto-oncogene, Src family tyrosine kinase)	1	0.56	1.54
BLK (BLK proto-oncogene, Src family tyrosine kinase)	2	0.32 (active)	0.4
BLK (BLK proto-oncogene, Src family tyrosine kinase)	3	1.06	2.46
BLK (BLK proto-oncogene, Src family tyrosine kinase)	4	0.73	1.42
ETNK2 (ethanolamine kinase 2)	1	0.44 (active)	0.98
ETNK2 (ethanolamine kinase 2)	2	0.51 (active)	0.94
ETNK2 (ethanolamine kinase 2)	3	0.52 (active)	0.62
ETNK2 (ethanolamine kinase 2)	4	0 (active)	0
UHMK1 (U2AF homology motif kinase 1)	1	0.38 (active)	0.72
UHMK1 (U2AF homology motif kinase 1)	2	0.47 (active)	0.67
UHMK1 (U2AF homology motif kinase 1)	3	0.51 (active)	0.66
UHMK1 (U2AF homology motif kinase 1)	4	0.52 (active)	0.99
UBIAD1 (UbiA prenyltransferase domain containing 1)	1	0.46 (active)	0.48
UBIAD1 (UbiA prenyltransferase domain containing 1)	2	0.54 (active)	2.63
UBIAD1 (UbiA prenyltransferase domain containing 1)	3	0.68	1.31
UBIAD1 (UbiA prenyltransferase domain containing 1)	4	0.62	1.12
CCDC121 (coiled-coil domain containing 121)	1	0.52 (active)	1.31
CCDC121 (coiled-coil domain containing 121)	2	0.4 (active)	0.8
CCDC121 (coiled-coil domain containing 121)	3	0.88	1.9
CCDC121 (coiled-coil domain containing 121)	4	0.55	1.14
